These are yes or no findings as the source states them, for the method shown.
Columns and labels:
[1] = biological target: IL-31RA from rat (rat); experiment: SPR (Biacore T100)
[2] = biological target: IL-31RA from rabbit (rabbit); experiment: SPR (Biacore T100)

B1: anti-human IL-31RA antibody CIM331 (nemolizumab) (antibody, V domains shown)
VH: QVQLVQSGAEVKKPGASVKVSCKASGYTFTGYIMNWVRQAPGQGLEWMGLINPYNGGTDYNPQFQDRVTITADKSTSTAYMELSSLRSEDTAVYYCARDGYDDGPYTLETWGQGTLVTVSS
VL: DIQMTQSPSSLSASVGDRVTITCQASEDIYSFVAWYQQKPGKAPKLLIYNAQTEAQGVPSRFSGSGSGTDFTLTISSLQPEDFATYYCQHHYDSPLTFGGGTKVEIKR
**Q.** For B1, which binding [1] is on record?
**A.** The binding was “no binding”.

**Q.** What about the binding [2] of the same binder?
**A.** The binding was “no binding”.
